Laboratory results as given in publication PMC2684557.
No constants are given. Whether binding was seen depends on the method and setting. In cells and extracts the contact can be indirect. Some results given as binding are weak or reduced against the parent protein; the word gives no strength.

Chains of the proteins cited; added tags and fusions are not shown. Residues count along the entry.
UniProt P99999: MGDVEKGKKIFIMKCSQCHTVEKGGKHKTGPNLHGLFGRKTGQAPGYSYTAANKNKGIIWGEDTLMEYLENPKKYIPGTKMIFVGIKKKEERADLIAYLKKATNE
UniProt P00829, residues 47-528: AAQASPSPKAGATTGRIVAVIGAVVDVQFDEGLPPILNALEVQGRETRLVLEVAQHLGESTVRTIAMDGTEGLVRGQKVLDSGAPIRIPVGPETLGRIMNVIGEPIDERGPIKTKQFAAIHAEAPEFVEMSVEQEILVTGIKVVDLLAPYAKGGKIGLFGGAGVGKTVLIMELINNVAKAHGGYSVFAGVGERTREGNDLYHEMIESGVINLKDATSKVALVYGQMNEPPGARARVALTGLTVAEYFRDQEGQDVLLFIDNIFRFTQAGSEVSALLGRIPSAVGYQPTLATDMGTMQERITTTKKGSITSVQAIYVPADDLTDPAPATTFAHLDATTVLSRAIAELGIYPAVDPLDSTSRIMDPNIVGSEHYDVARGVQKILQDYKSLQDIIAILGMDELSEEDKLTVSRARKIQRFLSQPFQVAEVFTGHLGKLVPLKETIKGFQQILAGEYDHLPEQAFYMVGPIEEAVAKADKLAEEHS
UniProt P31039, residues 44-665: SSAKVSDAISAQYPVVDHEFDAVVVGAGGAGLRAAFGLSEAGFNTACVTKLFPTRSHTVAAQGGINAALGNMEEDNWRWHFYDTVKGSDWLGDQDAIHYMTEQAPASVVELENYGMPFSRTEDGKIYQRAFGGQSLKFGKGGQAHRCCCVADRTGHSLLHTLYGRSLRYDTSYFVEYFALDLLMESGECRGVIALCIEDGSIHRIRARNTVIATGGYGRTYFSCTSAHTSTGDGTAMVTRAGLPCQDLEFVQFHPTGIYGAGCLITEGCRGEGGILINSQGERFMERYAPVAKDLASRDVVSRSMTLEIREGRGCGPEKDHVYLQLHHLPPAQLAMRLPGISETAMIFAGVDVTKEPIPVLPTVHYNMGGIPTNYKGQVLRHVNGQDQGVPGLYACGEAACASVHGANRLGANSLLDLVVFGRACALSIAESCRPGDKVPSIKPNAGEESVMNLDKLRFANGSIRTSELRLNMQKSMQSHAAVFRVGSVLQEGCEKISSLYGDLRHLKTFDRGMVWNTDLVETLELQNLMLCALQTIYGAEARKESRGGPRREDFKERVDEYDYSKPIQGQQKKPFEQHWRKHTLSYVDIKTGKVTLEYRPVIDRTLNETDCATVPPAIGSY
UniProt Q02375, residues 43-175: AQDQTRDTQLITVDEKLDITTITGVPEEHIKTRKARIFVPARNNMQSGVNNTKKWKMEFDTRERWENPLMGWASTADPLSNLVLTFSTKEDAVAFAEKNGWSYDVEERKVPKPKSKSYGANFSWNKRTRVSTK

Columns and labels:
[1] = biological target: cytochrome c, human lens epithelial cell mitochondria (human (endogenous in HLE B3)) (UniProt P99999); assay: co-IP; HLE B3 mitochondrial protein (500 ug) incubated with 20 ug anti-cytochrome c antibody for 1 h at 4 C, then with Protein A-agarose beads overnight at 4 C; washed 3 times in PBS 1 mM n-DMP; eluted by boiling in SDS loading buffer; blot probed with MsrA antibody
[2] = biological target: complex V ATP synthase subunit beta (56 kDa), bovine (bovine (endogenous in bovine liver)) (UniProt P00829); assay: co-IP; bovine liver tissue supernatant (500 ug) incubated overnight at 4 C with antibodies to specific subunits of complexes I-V conjugated to protein-G agarose beads; washed 4X with PBS 1 mM n-dodecyl-beta-D-maltopyranoside; eluted with 0.2 M glycine pH 2.5; blot probed with MsrA antibody
[3] = biological target: complex IV cytochrome c oxidase subunit I (57 kDa), bovine (bovine (endogenous in bovine liver)) (UniProt P00396); assay: as above
[4] = biological target: complex II 70 kDa subunit, bovine (bovine (endogenous in bovine liver)) (UniProt P31039); assay: as above
[5] = biological target: T1, complex III core I subunit (48 kDa), bovine (bovine (endogenous in bovine liver)) (UniProt P31800); assay: as above
T1 sequence: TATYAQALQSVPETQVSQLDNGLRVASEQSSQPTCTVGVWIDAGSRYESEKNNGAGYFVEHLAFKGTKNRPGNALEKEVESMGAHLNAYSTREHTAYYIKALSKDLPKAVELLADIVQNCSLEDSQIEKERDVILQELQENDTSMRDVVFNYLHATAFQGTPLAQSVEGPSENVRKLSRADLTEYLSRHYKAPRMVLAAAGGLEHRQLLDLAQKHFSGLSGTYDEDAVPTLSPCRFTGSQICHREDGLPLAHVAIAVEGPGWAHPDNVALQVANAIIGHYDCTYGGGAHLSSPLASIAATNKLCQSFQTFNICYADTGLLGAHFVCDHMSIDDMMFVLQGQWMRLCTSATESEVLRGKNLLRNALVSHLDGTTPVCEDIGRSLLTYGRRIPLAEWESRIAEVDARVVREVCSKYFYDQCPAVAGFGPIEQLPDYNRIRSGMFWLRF

[6] = biological target: NDUFS4 (18 kDa), subunit of mitochondrial complex I, bovine (bovine (endogenous in bovine liver)) (UniProt Q02375); assay: as above

Measured: binding

B1: methionine sulfoxide reductase A (MsrA), human lens epithelial cell mitochondria (enzyme, UniProt Q9UJ68 24-235)
chain: GNSASNIVSPQEALPGRKEQTPVAAKHHVNGNRTVEPFPEGTQMAVFGMGCFWGAERKFWVLKGVYSTQVGFAGGYTSNPTYKEVCSEKTGHAEVVRVVYQPEHMSFEELLKVFWENHDPTQGMRQGNDHGTQYRSAIYPTSAKQMEAALSSKENYQKVLSEHGFGPITTDIREGQTFYYAEDYHQQYLSKNPNGYCGLGGTGVSCPVGIKK
binds: [1]

B2: methionine sulfoxide reductase A (MsrA), bovine liver (enzyme, UniProt P54149 21-233)
chain: MGDSAAKIVSPQEALPGRKEPLVVAAKHHVNGNRTVEPFPEGTQMAVFGMGCFWGAERKFWTLKGVYSTQVGFAGGYTPNPTYKEVCSGKTGHAEVVRVVFQPEHISFEELLKVFWENHDPTQGMRQGNDHGSQYRSAIYPTSAEHVGAALKSKEDYQKVLSEHGFGLITTDIREGQTFYYAEDYHQQYLSKDPDGYCGLGGTGVSCPLGIKK
not listed: [1]
binds: all other assays above
